Here are results for 1 molecule from PMC13384796.

Chains of the proteins cited; added tags and fusions are not shown. Residues count along the entry.
UniProt P01267, residues 20-2769: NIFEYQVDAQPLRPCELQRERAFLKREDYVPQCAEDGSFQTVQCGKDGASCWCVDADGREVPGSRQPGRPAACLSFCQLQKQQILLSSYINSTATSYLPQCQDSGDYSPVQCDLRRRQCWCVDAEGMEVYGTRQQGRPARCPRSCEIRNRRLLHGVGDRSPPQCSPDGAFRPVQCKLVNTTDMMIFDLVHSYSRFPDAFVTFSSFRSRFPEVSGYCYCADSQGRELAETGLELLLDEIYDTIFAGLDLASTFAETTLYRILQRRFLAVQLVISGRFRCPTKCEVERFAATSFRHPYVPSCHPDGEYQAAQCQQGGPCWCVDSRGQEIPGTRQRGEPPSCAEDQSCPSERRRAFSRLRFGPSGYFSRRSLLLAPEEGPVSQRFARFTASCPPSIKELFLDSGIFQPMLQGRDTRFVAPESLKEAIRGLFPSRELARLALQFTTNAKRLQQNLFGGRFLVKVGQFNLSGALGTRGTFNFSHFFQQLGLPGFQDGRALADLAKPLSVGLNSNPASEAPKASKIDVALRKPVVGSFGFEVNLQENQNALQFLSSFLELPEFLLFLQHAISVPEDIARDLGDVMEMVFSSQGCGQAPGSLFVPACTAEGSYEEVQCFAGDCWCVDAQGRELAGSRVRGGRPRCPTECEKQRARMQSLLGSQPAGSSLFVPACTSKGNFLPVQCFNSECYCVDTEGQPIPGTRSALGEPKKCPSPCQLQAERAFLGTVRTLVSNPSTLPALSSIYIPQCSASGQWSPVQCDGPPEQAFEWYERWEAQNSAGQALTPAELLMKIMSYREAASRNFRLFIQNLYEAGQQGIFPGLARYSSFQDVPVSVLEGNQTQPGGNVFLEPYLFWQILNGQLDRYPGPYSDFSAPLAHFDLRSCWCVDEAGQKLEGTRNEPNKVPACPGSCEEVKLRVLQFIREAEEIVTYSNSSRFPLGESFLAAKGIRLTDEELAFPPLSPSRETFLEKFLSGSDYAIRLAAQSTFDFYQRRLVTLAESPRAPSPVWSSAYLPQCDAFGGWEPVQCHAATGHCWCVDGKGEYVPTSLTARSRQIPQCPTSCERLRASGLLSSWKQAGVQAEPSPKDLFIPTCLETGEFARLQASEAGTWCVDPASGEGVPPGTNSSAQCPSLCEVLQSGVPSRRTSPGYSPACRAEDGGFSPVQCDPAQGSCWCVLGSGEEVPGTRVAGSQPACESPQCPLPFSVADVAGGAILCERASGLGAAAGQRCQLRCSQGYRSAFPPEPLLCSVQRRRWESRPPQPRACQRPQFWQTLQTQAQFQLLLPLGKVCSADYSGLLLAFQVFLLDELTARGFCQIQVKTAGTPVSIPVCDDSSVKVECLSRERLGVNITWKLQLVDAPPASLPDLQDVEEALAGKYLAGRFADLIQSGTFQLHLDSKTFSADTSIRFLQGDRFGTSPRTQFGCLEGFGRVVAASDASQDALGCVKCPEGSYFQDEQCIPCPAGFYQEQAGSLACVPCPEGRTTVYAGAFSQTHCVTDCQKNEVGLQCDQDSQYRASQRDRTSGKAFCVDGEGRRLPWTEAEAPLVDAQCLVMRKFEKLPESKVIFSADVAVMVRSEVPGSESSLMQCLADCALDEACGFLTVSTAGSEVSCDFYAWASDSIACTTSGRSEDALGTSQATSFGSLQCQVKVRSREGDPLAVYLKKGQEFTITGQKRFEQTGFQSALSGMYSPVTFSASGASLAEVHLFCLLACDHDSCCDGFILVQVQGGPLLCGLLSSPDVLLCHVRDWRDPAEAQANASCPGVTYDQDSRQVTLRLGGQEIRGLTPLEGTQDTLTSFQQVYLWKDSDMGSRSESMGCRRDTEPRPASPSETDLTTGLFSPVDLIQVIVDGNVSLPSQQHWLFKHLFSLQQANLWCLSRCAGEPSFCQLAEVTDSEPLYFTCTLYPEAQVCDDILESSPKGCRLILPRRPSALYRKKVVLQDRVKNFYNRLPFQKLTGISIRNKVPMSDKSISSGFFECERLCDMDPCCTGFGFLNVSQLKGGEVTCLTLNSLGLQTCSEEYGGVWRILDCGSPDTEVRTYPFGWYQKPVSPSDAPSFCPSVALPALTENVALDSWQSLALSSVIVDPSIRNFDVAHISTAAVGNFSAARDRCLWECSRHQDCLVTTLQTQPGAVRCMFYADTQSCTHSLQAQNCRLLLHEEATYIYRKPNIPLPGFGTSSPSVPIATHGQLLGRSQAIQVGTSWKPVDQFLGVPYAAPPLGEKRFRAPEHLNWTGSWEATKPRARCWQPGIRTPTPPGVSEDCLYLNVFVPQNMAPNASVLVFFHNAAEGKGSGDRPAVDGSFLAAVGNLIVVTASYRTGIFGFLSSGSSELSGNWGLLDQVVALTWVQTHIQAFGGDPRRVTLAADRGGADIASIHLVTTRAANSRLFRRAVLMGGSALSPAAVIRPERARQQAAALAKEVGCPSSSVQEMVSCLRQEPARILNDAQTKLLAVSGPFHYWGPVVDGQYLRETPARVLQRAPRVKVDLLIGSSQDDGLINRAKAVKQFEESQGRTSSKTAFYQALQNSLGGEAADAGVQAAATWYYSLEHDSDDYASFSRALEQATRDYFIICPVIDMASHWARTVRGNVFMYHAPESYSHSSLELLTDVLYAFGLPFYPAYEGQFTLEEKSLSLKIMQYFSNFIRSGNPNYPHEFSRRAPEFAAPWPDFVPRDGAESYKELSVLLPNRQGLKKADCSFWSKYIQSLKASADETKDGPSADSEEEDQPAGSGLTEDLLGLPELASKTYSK

Assay [1] concerns the target bovine thyroglobulin (bovine) (UniProt P01267). Nature of the assay: ELISA; glycoprotein immobilised on MaxiSorp plates (sodium carbonate buffer pH 9.6, overnight); varying concentrations of biotinylated lectin; detected with fluorescent streptavidin; both purified.
The target is the same in assay [2]. Nature of the assay: ELISA; ELISA-type competitive inhibition assay: thyroglobulin (5 µg/mL) or mucin (100 µg/mL) immobilised; 10 µg/mL biotinylated lectin incubated for 1 h together with varying concentrations of glyco-nanogel or free saccharide in PBS with 0.1 mM CaCl2; Atto488-streptavidin read-out; both purified. (In general: In an ELISA, binding on a coated surface is turned into a signal by an enzyme label.)

No constants are given. Whether binding was seen depends on the method and setting. Some binding calls cover weakened binding; strength is not graded here.

B1: Pseudomonas aeruginosa lectin LecA (protein, UniProt Q05097 1-122)
chain: MAWKGEVLANNEAGQVTSIIYNPGDVITIVAAGWASYGPTQKWGPQGDREHPDQGLICHDAFCGALVMKIGNSGTIPVNTGLFRWVAPNNVQGAITLIYNDVPGTYGNNSGSFSVNIGKDQS
modifications: biotin-labeled (site not stated)
As for B1, the binding result in assay [1] and in assay [2] was “binds” throughout.
